This experiment relates to MCF7. The experiment is described as follows: Cytotoxicity against human MCF7 cells after 72 hrs […]. Particulars: MCF7, 72 h. It is filed as functional, cell-based.

Each structure is given as a SMILES string.

We go through one molecule from ChEMBL document CHEMBL1152373, “Synthesis and antimultidrug resistance evaluation of icariin and its derivatives” (Bioorg Med Chem Lett, 2009).

Broadly, the IC50 is the concentration at which inhibition is half-maximal. Low readings indicate higher potency, high ones lower potency. Molecule `COc1cccc2c1C(=O)c1c(O)c3c(c(O)c1C2=O)C[C@@](O)(C(=O)CO)C[C@@H]3O[C@H]1C[C@H](N)[C@H](O)[C@H](C)O1` [DOXORUBICIN] yielded an IC50 of 530 nM.
